# PubChem BioAssay AID1259261 | Sanger Institute – 2017
# Test: 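Kinase knock-downs that kill colorectal cancer cells or boost targeted drugs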 (primary screen)
# Cells: HCC2998 human colorectal cancer cells
# Reagent: siRNA pool against human genes
# Treatment: anchor drugs BYL719 1 µM, cetuximab 5 µg/ml or trametinib 10 nM, each compared with DMSO vehicle
# Measurement: 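Viability as fraction of non-targeting control plus robust z-score without drug; synergy scores compare knock-down plus drug against each alone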
# Scale: viability z-score, knock-down alone: higher = more viable cells than controls; viability fraction, knock-down alone: higher = more viable cells; synergy score with BYL719: higher = stronger combined killing with BYL719; synergy score with trametinib: higher = stronger combined killing with trametinib; synergy score with cetuximab: higher = stronger combined killing with cetuximab
# Hit rule: 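a knock-down is called essential if its robust z-score without drug is under -3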
# Calls: active = essential; inactive = no change
# The whole screen tested 794 reagents; shown is a part drawn at random. 10 of all reagents (1.3%) count as active. 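Calls reflect knock-down alone without drug; synergy scores with BYL719, cetuximab or trametinib do not affect calls.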 No viability above 1 is reported: the scale is capped. Reagent sequences are not shown. The record does not give: the amount of reagent, the time to read-out.
target gene,"viability z-score, knock-down alone","viability fraction, knock-down alone",synergy score with BYL719,synergy score with trametinib,synergy score with cetuximab,Outcome
PDK3 (pyruvate dehydrogenase kinase 3),-1.18,0.701,-0.0437,0.0377,-0.0831,inactive
EIF2AK4 (eukaryotic translation initiation factor 2 alpha kinase 4),1.21,1,-0.0584,0.0605,-0.0206,inactive
PDGFRB (platelet derived growth factor receptor beta),0.126,0.865,0.132,-0.0109,-0.00394,inactive
PACSIN1 (protein kinase C and casein kinase substrate in neurons 1),0.078,0.859,-0.0608,0.0928,0.0608,inactive
RIOK2 (RIO kinase 2),0.593,0.923,-0.0083,-0.0276,0.0511,inactive
CDKN2C (cyclin dependent kinase inhibitor 2C),0.344,0.892,-0.0768,0.162,0.0266,inactive
BTK (Bruton tyrosine kinase),0.324,0.89,-0.017,-0.0568,-0.0684,inactive
ERBB2 (erb-b2 receptor tyrosine kinase 2),0.966,0.97,-0.00669,-0.067,-0.0393,inactive
PRKAB2 (protein kinase AMP-activated non-catalytic subunit beta 2),1.21,1,0.00574,-0.00404,-0.0432,inactive
NEK1 (NIMA related kinase 1),-0.202,0.824,-0.226,-0.0661,0.078,inactive
AKT3 (AKT serine/threonine kinase 3),-2.44,0.543,-0.13,-0.00896,-0.0573,inactive
CDK1 (cyclin dependent kinase 1),0.643,0.929,-0.0286,-0.138,-0.0663,inactive
MAP4K3 (mitogen-activated protein kinase kinase kinase kinase 3),0.621,0.927,0.0275,0.124,-0.00514,inactive
FN3KRP (fructosamine 3 kinase related protein),-0.327,0.808,0.0465,0.167,-0.197,inactive
DYRK1A,0.229,0.878,-0.129,0.0655,-0.0998,inactive
STK32A (serine/threonine kinase 32A),1.21,1,-0.0763,0.0749,-0.0432,inactive
NTRK1 (neurotrophic receptor tyrosine kinase 1),-0.657,0.767,-0.0722,0.0552,-0.0844,inactive
STK33 (serine/threonine kinase 33),0.332,0.891,0.0518,0.0795,0.00411,inactive
MAPKAPK3 (MAPK activated protein kinase 3),-0.886,0.738,0.0007,-0.0138,0.0677,inactive
NPR2 (natriuretic peptide receptor 2),1.21,1,0.0288,0.172,0.0129,inactive
"ABL1 (ABL proto-oncogene 1, non-receptor tyrosine kinase)",0.86,0.957,0.0061,0.00767,0.00918,inactive
PANK1 (pantothenate kinase 1),1.21,1,-0.00639,-0.0106,-0.0432,inactive
MAPK14 (mitogen-activated protein kinase 14),-0.114,0.835,-0.0262,-0.147,0.00924,inactive
NEK11 (NIMA related kinase 11),-0.739,0.756,0.004,0.137,-0.104,inactive
TRIB2 (tribbles pseudokinase 2),0.358,0.894,-0.0132,0.0637,0.00407,inactive
FGFR3 (fibroblast growth factor receptor 3),-0.775,0.752,-0.0642,0.069,-0.0866,inactive
STYK1 (STY kinase 1),0.169,0.87,-0.137,-0.0352,-0.112,inactive
SCYL1 (SCY1 like pseudokinase 1),1.21,1,-0.109,-0.00852,-0.0432,inactive
MAP3K6 (mitogen-activated protein kinase kinase kinase 6),1.1,0.987,0.0134,0.0862,0.0937,inactive
NIM1K (NIM1 serine/threonine protein kinase),-0.529,0.782,-0.126,-0.0608,-0.0393,inactive

An excerpt from above, showing only “viability z-score, knock-down alone”.
TRIB2 (tribbles pseudokinase 2)	0.358
FGFR3 (fibroblast growth factor receptor 3)	-0.775
STYK1 (STY kinase 1)	0.169
SCYL1 (SCY1 like pseudokinase 1)	1.21
MAP3K6 (mitogen-activated protein kinase kinase kinase 6)	1.1

The list goes on.
target gene,"viability z-score, knock-down alone","viability fraction, knock-down alone",synergy score with BYL719,synergy score with trametinib,synergy score with cetuximab,Outcome
PIK3CG,-0.551,0.78,-0.0378,0.0441,-0.0901,inactive
CALM2 (calmodulin 2),-0.182,0.826,0.00558,-0.0341,-0.00262,inactive
ROCK2 (Rho associated coiled-coil containing protein kinase 2),0.365,0.895,0.0493,-0.0137,0.058,inactive
TAOK2 (TAO kinase 2),1.21,1,-0.106,-0.0135,-0.0432,inactive
PSTK (phosphoseryl-tRNA kinase),-0.387,0.8,-0.0106,0.0636,0.0298,inactive
MAP3K14 (mitogen-activated protein kinase kinase kinase 14),-0.729,0.757,0.0197,-0.0601,-0.00831,inactive
MINK1 (misshapen like kinase 1),-0.389,0.8,0.0186,0.11,-0.0759,inactive
NR2F2 (nuclear receptor subfamily 2 group F member 2),0.00318,0.849,-0.0792,0.0636,-0.0416,inactive
MAP3K21 (mitogen-activated protein kinase kinase kinase 21),0.29,0.885,0.0151,0.112,0.106,inactive
KMT2B (lysine methyltransferase 2B),-0.332,0.807,-0.0131,-0.0105,0.016,inactive
IRAK4 (interleukin 1 receptor associated kinase 4),0.718,0.939,-0.0321,0.0462,-0.102,inactive
EPHA1 (EPH receptor A1),0.377,0.896,-0.016,0.131,-0.0143,inactive
CEP290 (centrosomal protein 290),0.194,0.873,-0.157,-0.0082,-0.0107,inactive
GCK (glucokinase),-1.08,0.714,0.0139,-0.0127,-0.0681,inactive
ANKK1 (ankyrin repeat and kinase domain containing 1),-1.45,0.667,-0.0566,-0.0412,-0.0499,inactive
PINK1 (PTEN induced kinase 1),0.34,0.892,-0.0971,-0.00707,-0.147,inactive
GATA3 (GATA binding protein 3),0.0589,0.856,-0.0624,-0.135,-0.0147,inactive
NME5 (NME/NM23 family member 5),1.21,1,0.0803,0.00356,-0.0285,inactive
CERK (ceramide kinase),-0.361,0.804,-0.0965,0.0729,-0.056,inactive
DBF4 (DBF4-CDC7 kinase regulatory subunit),0.839,0.954,-0.124,-0.0888,-0.0584,inactive
